Here are results for eight molecules from publication PMC6316800.

The chains behind the UniProt entries cited, without tags or fusion partners.
UniProt P03496: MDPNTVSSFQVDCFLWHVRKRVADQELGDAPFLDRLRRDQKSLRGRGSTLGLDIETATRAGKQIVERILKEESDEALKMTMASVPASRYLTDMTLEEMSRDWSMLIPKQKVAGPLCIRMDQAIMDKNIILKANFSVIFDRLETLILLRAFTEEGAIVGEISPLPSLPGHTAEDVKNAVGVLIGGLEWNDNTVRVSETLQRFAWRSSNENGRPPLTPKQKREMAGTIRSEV

The assay deals with Influenza A virus non-structural protein 1 (NS1), strain A/Puerto Rico/8/1934(H1N1) (Influenza A virus A/Puerto Rico/8/1934(H1N1)) (UniProt P03496). The assay is described as follows: affinity purification with mass spectrometry.

These are yes or no findings as the source states them, for the method shown. In cells and extracts the contact can be indirect. Here binding means that the protein was enriched with, or labelled near, the bait; the list need not be complete.

B1: Guanine nucleotide-binding protein-like 3 (protein, UniProt Q9BVP2 1-549)
chain: MKRPKLKKASKRMTCHKRYKIQKKVREHHRKLRKEAKKRGHKKPRKDPGVPNSAPFKEALLREAELRKQRLEELKQQQKLDRQKELEKKRKLETNPDIKPSNVEPMEKEFGLCKTENKAKSGKQNSKKLYCQELKKVIEASDVVLEVLDARDPLGCRCPQVEEAIVQSGQKKLVLILNKSDLVPKENLESWLNYLKKELPTVVFRASTKPKDKGKITKRVKAKKNAAPFRSEVCFGKEGLWKLLGGFQETCSKAIRVGVIGFPNVGKSSIINSLKQEQMCNVGVSMGLTRSMQVVPLDKQITIIDSPSFIVSPLNSSSALALRSPASIEVVKPMEAASAILSQADARQVVLKYTVPGYRNSLEFFTVLAQRRGMHQKGGIPNVEGAAKLLWSEWTGASLAYYCHPPTSWTPPPYFNESIVVDMKSGFNLEELEKNNAQSIRAIKGPHLANSILFQSSGLTNGIIEEKDIHEELPKRKERKQEEREDDKDSDQETVDEEVDENSSGMFAAEETGEALSEETTAGEQSTRSFILDKIIEEDDAYDFSTDYV
Consider B1, for which the binding entry is “binds”.

B2: Deoxynucleotidyltransferase terminal-interacting protein 2 (protein, UniProt Q5QJE6 1-756)
chain: MVVTRSARAKASIQAASAESSGQKSFAANGIQAHPESSTGSDARTTAESQTTGKQSLIPRTPKARKRKSRTTGSLPKGTEPSTDGETSEAESNYSVSEHHDTILRVTRRRQILIACSPVSSVRKKPKVTPTKESYTEEIVSEAESHVSGISRIVLPTEKTTGARRSKAKSLTDPSQESHTEAISDAETSSSDISFSGIATRRTRSMQRKLKAQTEKKDSKIVPGNEKQIVGTPVNSEDSDTRQTSHLQARSLSEINKPNFYNNDFDDDFSHRSSENILTVHEQANVESLKETKQNCKDLDEDANGITDEGKEINEKSSQLKNLSELQDTSLQQLVSQRHSTPQNKNAVSVHSNLNSEAVMKSLTQTFATVEVGRWNNNKKSPIKASDLTKFGDCGGSDDEEESTVISVSEDMNSEGNVDFECDTKLYTSAPNTSQGKDNSVLLVLSSDESQQSENSENEEDTLCFVENSGQRESLSGDTGSLSCDNALFVIDTTPGMSADKNFYLEEEDKASEVAIEEEKEEEEDEKSEEDSSDHDENEDEFSDEEDFLNSTKAKLLKLTSSSIDPGLSIKQLGGLYINFNADKLQSNKRTLTQIKEKKKNELLQKAVITPDFEKNHCVPPYSESKYQLQKKRRKERQKTAGDGWFGMKAPEMTNELKNDLKALKMRASMDPKRFYKKNDRDGFPKYFQIGTIVDNPADFYHSRIPKKQRKRTIVEELLADSEFRRYNRRKYSEIMAEKAANAAGKKFRKKKKFRN
As to B2, the binding entry is given as “binds”.

B3: Probable rRNA-processing protein EBP2 (protein, UniProt Q99848 1-306)
chain: MDTPPLSDSESESDESLVTDRELQDAFSRGLLKPGLNVVLEGPKKAVNDVNGLKQCLAEFKRDLEWVERLDVTLGPVPEIGGSEAPAPQNKDQKAVDPEDDFQREMSFYRQAQAAVLAVLPRLHQLKVPTKRPTDYFAEMAKSDLQMQKIRQKLQTKQAAMERSEKAKQLRALRKYGKKVQTEVLQKRQQEKAHMMNAIKKYQKGFSDKLDFLEGDQKPLAQRKKAGAKGQQMRKGPSAKRRYKNQKFGFGGKKKGSKWNTRESYDDVSSFRAKTAHGRGLKRPGKKGSNKRPGKRTREKMKNRTH
Take B3: the binding entry was “binds”.

B4: Putative ATP-dependent RNA helicase DHX30 (protein, UniProt Q7L2E3 1-1194)
chain: MFSLDSFRKDRAQHRQRQCKLPPPRLPPMCVNPTPGGTISRASRDLLKEFPQPKNLLNSVIGRALGISHAKDKLVYVHTNGPKKKKVTLHIKWPKSVEVEGYGSKKIDAERQAAAAACQLFKGWGLLGPRNELFDAAKYRVLADRFGSPADSWWRPEPTMPPTSWRQLNPESIRPGGPGGLSRSLGREEEEDEEEELEEGTIDVTDFLSMTQQDSHAPLRDSRGSSFEMTDDDSAIRALTQFPLPKNLLAKVIQIATSSSTAKNLMQFHTVGTKTKLSTLTLLWPCPMTFVAKGRRKAEAENKAAALACKKLKSLGLVDRNNEPLTHAMYNLASLRELGETQRRPCTIQVPEPILRKIETFLNHYPVESSWIAPELRLQSDDILPLGKDSGPLSDPITGKPYVPLLEAEEVRLSQSLLELWRRRGPVWQEAPQLPVDPHRDTILNAIEQHPVVVISGDTGCGKTTRIPQLLLERYVTEGRGARCNVIITQPRRISAVSVAQRVSHELGPSLRRNVGFQVRLESKPPSRGGALLFCTVGILLRKLQSNPSLEGVSHVIVDEVHERDVNTDFLLILLKGLQRLNPALRLVLMSATGDNERFSRYFGGCPVIKVPGFMYPVKEHYLEDILAKLGKHQYLHRHRHHESEDECALDLDLVTDLVLHIDARGEPGGILCFLPGWQEIKGVQQRLQEALGMHESKYLILPVHSNIPMMDQKAIFQQPPVGVRKIVLATNIAETSITINDIVHVVDSGLHKEERYDLKTKVSCLETVWVSRANVIQRRGRAGRCQSGFAYHLFPRSRLEKMVPFQVPEILRTPLENLVLQAKIHMPEKTAVEFLSKAVDSPNIKAVDEAVILLQEIGVLDQREYLTTLGQRLAHISTDPRLAKAIVLAAIFRCLHPLLVVVSCLTRDPFSSSLQNRAEVDKVKALLSHDSGSDHLAFVRAVAGWEEVLRWQDRSSRENYLEENLLYAPSLRFIHGLIKQFSENIYEAFLVGKPSDCTLASAQCNEYSEEEELVKGVLMAGLYPNLIQVRQGKVTRQGKFKPNSVTYRTKSGNILLHKSTINREATRLRSRWLTYFMAVKSNGSVFVRDSSQVHPLAVLLLTDGDVHIRDDGRRATISLSDSDLLRLEGDSRTVRLLKELRRALGRMVERSLRSELAALPPSVQEEHGQLLALLAELLRGPCGSFDVRKTADD
B4: the binding result is listed as “binds”.

B5: Probable ATP-dependent RNA helicase DDX56 (protein, UniProt Q9NY93 1-547)
chain: MEDSEALGFEHMGLDPRLLQAVTDLGWSRPTLIQEKAIPLALEGKDLLARARTGSGKTAAYAIPMLQLLLHRKATGPVVEQAVRGLVLVPTKELARQAQSMIQQLATYCARDVRVANVSAAEDSVSQRAVLMEKPDVVVGTPSRILSHLQQDSLKLRDSLELLVVDEADLLFSFGFEEELKSLLCHLPRIYQAFLMSATFNEDVQALKELILHNPVTLKLQESQLPGPDQLQQFQVVCETEEDKFLLLYALLKLSLIRGKSLLFVNTLERSYRLRLFLEQFSIPTCVLNGELPLRSRCHIISQFNQGFYDCVIATDAEVLGAPVKGKRRGRGPKGDKASDPEAGVARGIDFHHVSAVLNFDLPPTPEAYIHRAGRTARANNPGIVLTFVLPTEQFHLGKIEELLSGENRGPILLPYQFRMEEIEGFRYRCRDAMRSVTKQAIREARLKEIKEELLHSEKLKTYFEDNPRDLQLLRHDLPLHPAVVKPHLGHVPDYLVPPALRGLVRPHKKRKKLSSSCRKAKRAKSQNPLRSFKHKGKKFRPTAKPS
In the case of B5, the binding result is “binds”.

B6: Putative rRNA methyltransferase 3 (protein, UniProt Q8IY81 1-847)
chain: MGKKGKVGKSRRDKFYHLAKETGYRSRSAFKLIQLNRRFQFLQKARALLDLCAAPGGWLQVAAKFMPVSSLIVGVDLVPIKPLPNVVTLQQDITTERCRQALRKELKTWKVDVVLNDGAPNVGASWVHDAYSQAHLTLMALRLACDFLARGGSFITKVFRSRDYQPLLWIFQQLFRRVQATKPQASRHESAEIFVVCQGFLAPDKVDSKFFDPKFAFKEVEVQAKTVTELVTKKKPKAEGYAEGDLTLYHRTSVTDFLRAANPVDFLSKASEIMVDDEELAQHPATTEDIRVCCQDIRVLGRKELRSLLNWRTKLRRYVAKKLKEQAKALDISLSSGEEDEGDEEDSTAGTTKQPSKEEEEEEEEEQLNQTLAEMKAQEVAELKRKKKKLLREQRKQRERVELKMDLPGVSIADEGETGMFSLSTIRGHQLLEEVTQGDMSAADTFLSDLPRDDIYVSDVEDDGDDTSLDSDLDPEELAGVRGHQGLRDQKRMRLTEVQDDKEEEEEENPLLVPLEEKAVLQEEQANLWFSKGSFAGIEDDADEALEISQAQLLFENRRKGRQQQQKQQLPQTPPSCLKTEIMSPLYQDEAPKGTEASSGTEAATGLEGEEKDGISDSDSSTSSEEEESWEPLRGKKRSRGPKSDDDGFEIVPIEDPAKHRILDPEGLALGAVIASSKKAKRDLIDNSFNRYTFNEDEGELPEWFVQEEKQHRIRQLPVGKKEVEHYRKRWREINARPIKKVAEAKARKKRRMLKRLEQTRKKAEAVVNTVDISEREKVAQLRSLYKKAGLGKEKRHVTYVVAKKGVGRKVRRPAGVRGHFKVVDSRMKKDQRAQQRKEQKKKHKRK
With B6, the binding entry is on record as “binds”.

B7: Zinc finger protein 326 (protein, UniProt Q5BKZ1 1-582)
chain: MDFEDDYTHSACRNTYQGFNGMDRDYGPGSYGGMDRDYGHGSYGGQRSMDSYLNQSYGMDNHSGGGGGSRFGPYESYDSRSSLGGRDLYRSGYGFNEPEQSRFGGSYGGRFESSYRNSLDSFGGRNQGGSSWEAPYSRSKLRPGFMEDRGRENYSSYSSFSSPHMKPAPVGSRGRGTPAYPESTFGSRNYDAFGGPSTGRGRGRGHMGDFGSIHRPGIVVDYQNKSTNVTVAAARGIKRKMMQPFNKPSGTFIKKPKLAKPMEKISLSKSPTKTDPKNEEEEKRRIEARREKQRRRREKNSEKYGDGYRMAFTCSFCKFRTFEEKDIELHLESSSHQETLDHIQKQTKFDKVVMEFLHECMVNKFKKTSIRKQQTNNQTEVVKIIEKDVMEGVTVDDHMMKVETVHCSACSVYIPALHSSVQQHLKSPDHIKGKQAYKEQIKRESVLTATSILNNPIVKARYERFVKGENPFEIQDHSQDQQIEGDEEDEEKIDEPIEEEEDEDEEEEAEEVGEVEEVEEVEEVREGGIEGEGNIQGVGEGGEVGVVGEVEGVGEVEEVEELEEETAKEEPADFPVEQPEEN
Consider B7, for which the binding entry was “binds”.

B8: H/ACA ribonucleoprotein complex subunit 4 (protein, UniProt O60832 1-514)
chain: MADAEVIILPKKHKKKKERKSLPEEDVAEIQHAEEFLIKPESKVAKLDTSQWPLLLKNFDKLNVRTTHYTPLACGSNPLKREIGDYIRTGFINLDKPSNPSSHEVVAWIRRILRVEKTGHSGTLDPKVTGCLIVCIERATRLVKSQQSAGKEYVGIVRLHNAIEGGTQLSRALETLTGALFQRPPLIAAVKRQLRVRTIYESKMIEYDPERRLGIFWVSCEAGTYIRTLCVHLGLLLGVGGQMQELRRVRSGVMSEKDHMVTMHDVLDAQWLYDNHKDESYLRRVVYPLEKLLTSHKRLVMKDSAVNAICYGAKIMLPGVLRYEDGIEVNQEIVVITTKGEAICMAIALMTTAVISTCDHGIVAKIKRVIMERDTYPRKWGLGPKASQKKLMIKQGLLDKHGKPTDSTPATWKQEYVDYSESAKKEVVAEVVKAPQVVAEAAKTAKRKRESESESDETPPAAPQLIKKEKKKSKKDKKAKAGLESGAEPGDGDSDTTKKKKKKKKAKEVELVSE
Take B8: the binding entry is listed as “binds”.
